# Measured values reported in the supplement of paper PMC8728848.
# Some of the results follow.
# B1: his-Lectin-24A (Drosophila melanogaster) (protein)
# chain: MFRLSVLVLNLLLVSHEFSAGTAKIEIQPLPALCNGYCFPTLKPVMEYVAIHQDKWNTCTEILANEARKDQIQLNIQLDALKADVSNIKASQLSKDEKLDRMEREQFAMHESLETINRYLTVKLDRTKLQLEAIKNTMDYMKAQMDGYFSAINGVQCLQPGFEKIGDRYFYIEEDVELNWLDAQAKCRRMGGHLASIKTKQEFDAIVEKLDDSKSYFLGVNENTKTGDFVSAASGKSCLYHEWGPGEPHHNNDQERCVSILRKLMHVGNCTYEKRFICQYGI
# Legend:
# Experiment in all cases: glycan array binding signal (z-score within array); higher = stronger binding
# Conditions in all cases: glycan notation: IUPAC condensed, linker removed
# [1] = target: GlcNAc(b1-3)Gal(b1-4)GlcNAc(b1-2)Man(a1-3)[GlcNAc(b1-3)Gal(b1-4)GlcNAc(b1-2)Man(a1-6)]Man(b1-4)GlcNAc(b1-4)[Fuc(a1-6)]GlcNAc
# How it was run: (§1)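 Glycan array binding is given as a within-array Z-score, which can be read as non-binding when negative. The arrays, 3228 of them, came from the Consortium for Functional Glycomics database and were retained only where the protein sequence was available. Z-scores were averaged across arrays of the same protein sequence at different concentrations or buffers and across linkers.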
# [2] = target: GlcNAc(b1-3)Gal(b1-4)GlcNAc(b1-2)[GlcNAc(b1-3)Gal(b1-4)GlcNAc(b1-6)]Man(a1-6)[GlcNAc(b1-3)Gal(b1-4)GlcNAc(b1-2)Man(a1-3)]Man(b1-4)GlcNAc(b1-4)GlcNAc
# How it was run: as §1
# [3] = target: GlcNAc(b1-3)Gal(b1-4)GlcNAc(b1-3)Gal(b1-4)GlcNAc
# How it was run: as §1
# [4] = target: GlcNAc(b1-3)Gal(b1-4)GlcNAc(b1-3)Gal(b1-4)GlcNAc(b1-2)Man(a1-3)[GlcNAc(b1-3)Gal(b1-4)GlcNAc(b1-3)Gal(b1-4)GlcNAc(b1-2)Man(a1-6)]Man(b1-4)GlcNAc(b1-4)GlcNAc
# How it was run: as §1
# [5] = target: GlcNAc(b1-3)Gal(b1-4)GlcNAc(b1-3)Gal(b1-4)GlcNAc(b1-2)Man(a1-3)[GlcNAc(b1-3)Gal(b1-4)GlcNAc(b1-3)Gal(b1-4)GlcNAc(b1-2)Man(a1-6)]Man(b1-4)GlcNAc(b1-4)[Fuc(a1-6)]GlcNAc
# How it was run: as §1
# [6] = target: GlcNAc(b1-3)Gal(b1-4)GlcNAc(b1-3)Gal(b1-4)GlcNAc(b1-2)[GlcNAc(b1-3)Gal(b1-4)GlcNAc(b1-3)Gal(b1-4)GlcNAc(b1-6)]Man(a1-6)[GlcNAc(b1-3)Gal(b1-4)GlcNAc(b1-3)Gal(b1-4)GlcNAc(b1-2)Man(a1-3)]Man(b1-4)GlcNAc(b1-4)[Fuc(a1-6)]GlcNAc
# How it was run: as §1
# [7] = target: GlcNAc(b1-3)Gal(b1-4)GlcNAc(b1-3)Gal(b1-4)GlcNAc(b1-3)Gal(b1-4)GlcNAc(b1-2)Man(a1-3)[GlcNAc(b1-3)Gal(b1-4)GlcNAc(b1-3)Gal(b1-4)GlcNAc(b1-3)Gal(b1-4)GlcNAc(b1-2)Man(a1-6)]Man(b1-4)GlcNAc(b1-4)GlcNAc
# How it was run: as §1
# [8] = target: GlcNAc(b1-3)Gal(b1-4)GlcNAc(b1-3)Gal(b1-4)GlcNAc(b1-3)Gal(b1-4)GlcNAc(b1-2)Man(a1-3)[GlcNAc(b1-3)Gal(b1-4)GlcNAc(b1-3)Gal(b1-4)GlcNAc(b1-3)Gal(b1-4)GlcNAc(b1-2)Man(a1-6)]Man(b1-4)GlcNAc(b1-4)[Fuc(a1-6)]GlcNAc
# How it was run: as §1
# [9] = target: GlcNAc(b1-3)Gal(b1-4)GlcNAc(b1-3)Gal(b1-4)GlcNAc(b1-3)Gal(b1-4)GlcNAc(b1-2)[GlcNAc(b1-3)Gal(b1-4)GlcNAc(b1-3)Gal(b1-4)GlcNAc(b1-3)Gal(b1-4)GlcNAc(b1-6)]Man(a1-6)[GlcNAc(b1-3)Gal(b1-4)GlcNAc(b1-3)Gal(b1-4)GlcNAc(b1-3)Gal(b1-4)GlcNAc(b1-2)Man(a1-3)]Man(b1-4)GlcNAc(b1-4)[Fuc(a1-6)]GlcNAc
# How it was run: as §1
# [10] = target: GlcNAc(b1-3)Gal(b1-4)GlcNAc(b1-3)Gal(b1-4)GlcNAc(b1-3)Gal(b1-4)GlcNAc(b1-3)Gal(b1-4)GlcNAc(b1-2)Man(a1-3)[GlcNAc(b1-3)Gal(b1-4)GlcNAc(b1-3)Gal(b1-4)GlcNAc(b1-3)Gal(b1-4)GlcNAc(b1-3)Gal(b1-4)GlcNAc(b1-2)Man(a1-6)]Man(b1-4)GlcNAc(b1-4)GlcNAc
# How it was run: as §1
# [11] = target: GlcNAc(b1-3)Gal(b1-4)GlcNAc(b1-3)Gal(b1-4)GlcNAc(b1-3)Gal(b1-4)GlcNAc(b1-3)Gal(b1-4)GlcNAc(b1-2)Man(a1-3)[GlcNAc(b1-3)Gal(b1-4)GlcNAc(b1-3)Gal(b1-4)GlcNAc(b1-3)Gal(b1-4)GlcNAc(b1-3)Gal(b1-4)GlcNAc(b1-2)Man(a1-6)]Man(b1-4)GlcNAc(b1-4)[Fuc(a1-6)]GlcNAc
# How it was run: as §1
# [12] = target: GlcNAc(b1-3)Gal(b1-4)GlcNAc(b1-3)Gal(b1-4)GlcNAc(b1-3)Gal(b1-4)GlcNAc(b1-3)Gal(b1-4)GlcNAc(b1-2)[GlcNAc(b1-3)Gal(b1-4)GlcNAc(b1-3)Gal(b1-4)GlcNAc(b1-3)Gal(b1-4)GlcNAc(b1-3)Gal(b1-4)GlcNAc(b1-6)]Man(a1-6)[GlcNAc(b1-3)Gal(b1-4)GlcNAc(b1-3)Gal(b1-4)GlcNAc(b1-3)Gal(b1-4)GlcNAc(b1-3)Gal(b1-4)GlcNAc(b1-2)Man(a1-3)]Man(b1-4)GlcNAc(b1-4)[Fuc(a1-6)]GlcNAc
# How it was run: as §1
# [13] = target: GlcNAc(b1-3)Gal(b1-4)GlcNAc(b1-3)Gal(b1-4)GlcNAc(b1-3)GalNAc
# How it was run: as §1
# [14] = target: GlcNAc(b1-3)Gal(b1-4)GlcNAc(b1-3)GalNAc
# How it was run: as §1
# [15] = target: GlcNAc(b1-3)Gal(b1-4)GlcNAc(b1-3)[GlcNAc(b1-3)Gal(b1-4)GlcNAc(b1-3)]GalNAc
# How it was run: as §1
# [16] = target: GlcNAc(b1-3)Gal(b1-4)GlcNAc(b1-6)[Gal(b1-3)]GalNAc
# How it was run: as §1
# [17] = target: GlcNAc(b1-3)Gal(b1-4)GlcNAc(b1-6)[GlcNAc(b1-3)Gal(b1-3)]GalNAc
# How it was run: as §1
# [18] = target: GlcNAc(b1-3)Gal(b1-4)GlcNAc(b1-6)[GlcNAc(b1-3)]Gal(b1-4)GlcNAc
# How it was run: as §1
# [19] = target: GlcNAc(b1-3)GalNAc
# How it was run: as §1
binder,measurement,setting,value
B1,glycan array binding signal (z-score),[1],0.264
same,glycan array binding signal (z-score),[2],-0.086
same,glycan array binding signal (z-score),[3],-0.845
same,glycan array binding signal (z-score),[4],-1
same,glycan array binding signal (z-score),[5],0.207
same,glycan array binding signal (z-score),[6],2.11
same,glycan array binding signal (z-score),[7],0.601
same,glycan array binding signal (z-score),[8],0.824
same,glycan array binding signal (z-score),[9],1.15
same,glycan array binding signal (z-score),[10],0.615
same,glycan array binding signal (z-score),[11],2.05
same,glycan array binding signal (z-score),[12],0.991
same,glycan array binding signal (z-score),[13],-0.549
same,glycan array binding signal (z-score),[14],-0.152
same,glycan array binding signal (z-score),[15],-1.7
same,glycan array binding signal (z-score),[16],2.02
same,glycan array binding signal (z-score),[17],1.17
same,glycan array binding signal (z-score),[18],1
same,glycan array binding signal (z-score),[19],0.694

# An excerpt of these results, with tabs.
binder	measurement	setting	value
B1	glycan array binding signal (z-score)	[18]	1
same	glycan array binding signal (z-score)	[19]	0.694
